# Patent publication US12065471B2, “B*44 restricted peptides for use in immunotherapy against cancers and related methods” (Immatics Biotechnologies GmbH, priority 2018, dated 2024)
# Test system: HLA molecules of primary tumor and normal tissue samples
# Test: Identification and quantitation of tumor associated peptides presented on the cell surface (HLA immunoprecipitation, label-free LC-MS)
# Set-up: species or system human
# Conditions: HLA-B*44 positive normal (N=124) vs tumor samples (N=159), FIGS. 1A-1M
row,Substance,"over-presentation of peptide in cancer tissues (median MS signal intensities, detection frequency)"
1,DEIFTNDRRW (listed as Homo sapiens) [SEQ ID NO: 3],over-presentation
2,QEAKPRATW (listed as Homo sapiens) [SEQ ID NO: 409],over-presentation
3,TELEVKIRDW (listed as Homo sapiens) [SEQ ID NO: 196],over-presentation

# Same assay, conditions: cancer entities on which the peptide was found presented (HLA immunoprecipitation, LC-MS); abbreviations in table footnotes
row,Substance,Peptide Presentation on cancer entities
1,123 (DEINHQSL; listed as Homo sapiens) [compound 123],NHL
2,29 (TENPKKFKI; listed as Homo sapiens) [compound 29],MEL
3,78 (TEFSNHINL; listed as Homo sapiens) [compound 78],BRCA
4,321 (AENPLNIFYI; listed as Homo sapiens) [compound 321],"AML, NHL, NSCLCsquam"
5,410 (RELEEEFYSL; listed as Homo sapiens) [compound 410],CLL
6,1 (KEVDPASNTYTL; listed as Homo sapiens) [compound 1],NSCLCsquam
7,440 (QEVAQVASA; listed as Homo sapiens) [compound 440],HNSCC
8,107 (YQENPRAAW; listed as Homo sapiens) [compound 107],"MEL, PACA"
9,128 (TELTEARVQVW; listed as Homo sapiens) [compound 128],MEL
10,145 (EELRMLSF; listed as Homo sapiens) [compound 145],CLL
11,337 (VEVIPEGAML; listed as Homo sapiens) [compound 337],CLL
12,35 (RELVHMINW; listed as Homo sapiens) [compound 35],"BRCA, UEC"
13,357 (AELMDKPLTF; listed as Homo sapiens) [compound 357],"CRC, NSCLCadeno"
14,434 (AEQQQQQMY; listed as Homo sapiens) [compound 434],NHL
15,169 (KEHNSSVPWSS; listed as Homo sapiens) [compound 169],RCC
16,323 (SETAVVNVTY; listed as Homo sapiens) [compound 323],"GBC, NSCLCadeno"
17,18 (QEAPRPASSL; listed as Homo sapiens) [compound 18],NSCLCsquam
18,176 (GETQQHIQL; listed as Homo sapiens) [compound 176],NSCLCsquam
19,320 (AENPLNIFY; listed as Homo sapiens) [compound 320],"CCC, GBM, NHL, NSCLCsquam"
20,319 (YEWEPFAEV; listed as Homo sapiens) [compound 319],NSCLCadeno
21,286 (DELSVGRY; listed as Homo sapiens) [compound 286],"CRC, OSCAR, PRCA"
22,422 (EEAQWVRKYF; listed as Homo sapiens) [compound 422],"CLL, CRC, NHL, UBC"
23,195 (MEIKGTVTEF; listed as Homo sapiens) [compound 195],GBC
24,160 (AEIATTGQLY; listed as Homo sapiens) [compound 160],"GBM, MEL"

row,Substance,Peptide Presentation on cancer entities
1,196 (TELEVKIRDW; listed as Homo sapiens) [compound 196],"BRCA, GBC, HNSCC, NSCLCadeno, NSCLCsquam, OSCAR, PACA, UBC"
2,245 (MEFQGPMPAGM; listed as Homo sapiens) [compound 245],NSCLCsquam
3,397 (EECGKAFSVF; listed as Homo sapiens) [compound 397],CLL
4,346 (EEIENLQAQF; listed as Homo sapiens) [compound 346],MEL
5,343 (SEFDLEQVW; listed as Homo sapiens) [compound 343],"HNSCC, NHL, NSCLCsquam"
6,244 (VESSQAFTW; listed as Homo sapiens) [compound 244],HNSCC
7,387 (GEVQENYKL; listed as Homo sapiens) [compound 387],NSCLCsquam
8,236 (LEDQLKPMLEW; listed as Homo sapiens) [compound 236],MEL
9,26 (EESSSPVDEY; listed as Homo sapiens) [compound 26],"GBC, RCC"
10,55 (TEFHMQFSY; listed as Homo sapiens) [compound 55],CLL
11,136 (EEMPEEIHL; listed as Homo sapiens) [compound 136],"HNSCC, OSCAR"
12,44 (SEFGAPRW; listed as Homo sapiens) [compound 44],CCC
13,218 (REAEEKEAQL; listed as Homo sapiens) [compound 218],CLL
14,334 (LEWQNSSSM; listed as Homo sapiens) [compound 334],NHL
15,62 (AEYSVHKITSTF; listed as Homo sapiens) [compound 62],HNSCC
16,260 (VELMFPLLL; listed as Homo sapiens) [compound 260],BRCA
17,162 (EAYDIELNKW; listed as Homo sapiens) [compound 162],"OSCAR, UBC"
18,183 (KEMQVTISQQL; listed as Homo sapiens) [compound 183],NSCLCadeno
19,433 (AEEGPSVPKIY; listed as Homo sapiens) [compound 433],"CLL, NHL"
20,416 (DELMRKESQW; listed as Homo sapiens) [compound 416],"CLL, CRC, MEL, NHL, NSCLCsquam, UBC, UEC"
21,402 (IETSSEYFNF; listed as Homo sapiens) [compound 402],"BRCA, CRC, HNSCC, NHL, NSCLCadeno, NSCLCsquam, OSCAR, PACA, UBC, UEC"
22,411 (AERDLNVTI; listed as Homo sapiens) [compound 411],"NSCLCadeno, PACA"
23,225 (VEAATVSKW; listed as Homo sapiens) [compound 225],"BRCA, CCC, CRC, GBC, HNSCC, MEL, NSCLCadeno, OC, OSCAR, RCC, SCLC, UEC"
24,50 (SEYVHSSFSGF; listed as Homo sapiens) [compound 50],NSCLCadeno

row,Substance,Peptide Presentation on cancer entities
1,363 (EECDKAFHF; listed as Homo sapiens) [compound 363],"BRCA, CCC, CLL, CRC, GC, HNSCC, NHL, NSCLCadeno, NSCLCsquam, OC, OSCAR, PACA, PRCA, UBC"
2,233 (QEDKATQTL; listed as Homo sapiens) [compound 233],CLL
3,372 (EEYKFPSLF; listed as Homo sapiens) [compound 372],"BRCA, CLL, CRC, OC"
4,208 (SEFLLRIF; listed as Homo sapiens) [compound 208],BRCA
5,34 (AEPPILYSEY; listed as Homo sapiens) [compound 34],UEC
6,448 (ALSPVPSHW; listed as Homo sapiens) [compound 448],"CLL, NHL"
7,364 (EECDKAYSF; listed as Homo sapiens) [compound 364],"BRCA, CCC, CLL, CRC, GC, HCC, HNSCC, NHL, NSCLCadeno, NSCLCsquam, OC, OSCAR, PACA, PRCA, RCC, UBC, UEC"
8,95 (AAFEDAQGHIW; listed as Homo sapiens) [compound 95],PACA
9,255 (KQWEYNEKLAF; listed as Homo sapiens) [compound 255],GBM
10,341 (HELESENKKW; listed as Homo sapiens) [compound 341],"AML, NHL, NSCLCsquam, OSCAR"
11,219 (WEVEVGDRTDW; listed as Homo sapiens) [compound 219],"CLL, MEL, NHL, NSCLCadeno, RCC"
12,374 (NEAEWQEIL; listed as Homo sapiens) [compound 374],CLL
13,24 (EELALRIGL; listed as Homo sapiens) [compound 24],CCC
14,53 (KEDNPSGHTY; listed as Homo sapiens) [compound 53],NHL
15,439 (VEVGDRTDW; listed as Homo sapiens) [compound 439],NHL
16,313 (EEINQGGRKY; listed as Homo sapiens) [compound 313],"CLL, CRC, NHL, NSCLCadeno, NSCLCother, NSCLCsquam"
17,217 (EVEVGDRTDW; listed as Homo sapiens) [compound 217],UEC
18,283 (VEEEISRHY; listed as Homo sapiens) [compound 283],"BRCA, CCC, CLL, CRC, GBC, HCC, HNSCC, MEL, NSCLCadeno, NSCLCsquam, OC, OSCAR, PACA, PRCA, RCC, UBC, UEC"
19,450 (REIENGNSF; listed as Homo sapiens) [compound 450],"AML, CRC, GBC, HNSCC, NSCLCadeno, NSCLCsquam, PACA"
20,394 (SEILRVTLY; listed as Homo sapiens) [compound 394],"AML, CRC, HCC, NSCLCadeno, NSCLCsquam, OC, PACA"
21,5 (VEFLLLKY; listed as Homo sapiens) [compound 5],HCC
22,316 (RLWPEPENW; listed as Homo sapiens) [compound 316],GBM
23,121 (YENIPVDKV; listed as Homo sapiens) [compound 121],MEL
24,282 (KEFGIGDLVW; listed as Homo sapiens) [compound 282],"AML, HNSCC, OSCAR"
